Experimental data as given in the supplement of paper PMC5949888.
Most values lie at the floor of the assay. Slopes are relative: functional sequences can read slightly below zero.

What follows are substances tested on Saccharomyces cerevisiae PS128 hsf1 delta, HSF1(1-493) fusion (assay: growth estimate (transactivation domain function in HSF1 fusion, heat-shock survival) (a.u. (slope of normalised read count over time)); higher = stronger growth at 37°C, i.e. more transactivation activity). Conditions: library: random library.
Experimental: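 Random 60-nt DNA library encoding peptides of up to 20 aa, fused to the C-terminus of yeast HSF1 residues 1-493 (C-terminal TAD deleted) and expressed from the native HSF1 promoter on a CEN plasmid in hsf1-deleted S. cerevisiae PS128. Cells were selected at 37°C on -trp 5-FOA plates for 0, 2, 4, 6 and 8 days and amplicons were sequenced. Growth estimate is the slope of a robust linear fit of total-sum-normalised read counts (normalised to the first time point) over time, using at least 2 replicates. Sequences are classed functional (TAD activity) above a threshold of -0.13, set from stop-codon control sequences.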

Substance	growth estimate
GGGEGVILQLPPAWILYT	< -0.25
GGGFRSRVGQAPSAERVQSA	< -0.25
GGGLFDLAASWDELECCLSA	0.0727
GGGLVYSDYVTCFSSGSSQS	< -0.25
GGGSEQNILRRRPEVSVGSA	< -0.25
GGGSSAKTSTIGQCFDTRQD	< -0.25
GGGVIGCGKKGTPRHSVYHD	< -0.25
GGHCFQDTMWLR	< -0.25
GGHIVPKR	< -0.25
GGHLDLRRKITQTGQ	< -0.25
GGHPE	< -0.25
GGHTDMAPRSTWLLE	< -0.25
GGI	< -0.25
GGIQEASLAHIQEEWVGQSS	< -0.25
GGIRQRYVRRYGT	< -0.25
GGIS	< -0.25
GGIVRHWSLVALKGRFSPRA	< -0.25
GGK	< -0.25
GGKEGLLHISVGLLKDMSVR	< -0.25
GGKRRLMTR	< -0.25
GGL	< -0.25

Substance	growth estimate
GGLCAEYCHSLY	1.98
GGLCPDKDRGESYNGCGEYY	< -0.25
GGLERFQNSVCSTSSIARVM	< -0.25
GGLGRDGLVPLSTVH	< -0.25
GGLHDWGVRVYTDTYKSLSR	< -0.25
GGLHLVRMEKGSGDSGRWMG	< -0.25
GGLKFCTLVP	< -0.25
GGLMFE	< -0.25
GGLPCCPVKGHAFSRMCGTL	< -0.25
GGLRDRRATMRRRPFGRDAG	< -0.25
GGLRHIRRRDGTLGPEIRRR	< -0.25
GGLVVTGS	< -0.25
GGMDENSGDCTATHKVPASK	< -0.25
GGMFNIYPFRA	< -0.25
GGMLGAGTAFETLLAQARED	0.379
GGNIRDDSKGSCRKLSALEI	< -0.25
GGNLFAAAALIVNPKK	< -0.25
GGPN	-0.246
GGPPGV	< -0.25
GGPSTGVLVN	< -0.25
GGPSVCEPDDGNAVLPKISA	-0.246

Substance	growth estimate
GGPWPASRTGAATAAVPLHA	< -0.25
GGQIIC	< -0.25
GGQKVAHEKTL	< -0.25
GGQVGE	< -0.25
GGRGDGRESPFKQRVVPDPT	< -0.25
GGRSNAHRGPILMH	< -0.25
GGRYKY	-0.246
GGSCIRFVEYYLCKDC	< -0.25
GGSEGKDGA	< -0.25
GGSGHSLNHQGLH	< -0.25
GGSGKTKKFLGSPN	< -0.25
GGSKGR	-0.246
GGSRRACLA	< -0.25
GGSSSTLQAVVPCPILVRVT	< -0.25
GGSSVCCNSPSAERRGESHL	< -0.25
GGSVMYESMTLEELVRSLCS	-0.0372
GGSVVFI	< -0.25
GGTAFTMTQMRAIEPKSRMY	< -0.25
GGTASLGIRIRLCIPHHWTM	< -0.25
GGTFQWILRRMVSAMRGTGR	< -0.25
GGTGCLHLGIVLCRVPSLVA	< -0.25

Copied from the entries so far (5 entries):
Substance	growth estimate
GGSSSTLQAVVPCPILVRVT	< -0.25
GGSSVCCNSPSAERRGESHL	< -0.25
GGSVMYESMTLEELVRSLCS	-0.0372
GGSVVFI	< -0.25
GGTAFTMTQMRAIEPKSRMY	< -0.25

Continued.

Substance	growth estimate
GGTRHHDHICTGPGTVRGIM	-0.243
GGTVTQV	< -0.25
GGTYPEGGIESHLSRT	< -0.25
GGVCKWIALLEIDPDVR	< -0.25
GGVEAD	< -0.25
GGVISIVAYVRFSLAGRPPE	< -0.25
GGVKDYLASRGRPSLKGRVK	< -0.25
GGWSKVRYCRESRSAETPIS	< -0.25
GGWTTVRGGTCLPSFSQRIV	< -0.25
GGYQGNDICTGRNR	< -0.25
GGYSCLNTRYWD	< -0.25
GHAGTA	< -0.25
GHAIRWLRCH	< -0.25
GHCGGLVYSYVCSCIGGIRE	< -0.25
GHDGFSRSTRFNIRA	< -0.25
GHELVQSGMQPSAARGHRLS	< -0.25
GHENC	< -0.25
GHERWPL	< -0.25
